# The other results are listed elsewhere or left out. Shown are side measurements of this screen, not its main read-out; they come without a call. The list favours compounds with an active or inconclusive main result. The note in brackets gives the kind of curve behind each potency; many fits are weak.
# Assay: qHTS Assay for Lipid Storage Modulators in Drosophila S3 Cells;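 for cell number change: cells counted by Cell Tracker Red CMTPX staining in the red channel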
# Details: BODIPY lipid droplet fluorescence, 18-24 h; for cell number change: measured here: cell count max response, cells fed with added oleic acid
# Outline: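 Laser-scanning cytometry quantifies lipid droplet accumulation (500–530 nm total intensity; droplet/cell object ratio) in oleic acid-fed (400 uM added) Drosophila S3 cells treated with a concentration series. 20 uM Triacsin C defined 100% inhibition.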
# [1] = measured here: lipid fluorescence (Fed channel) AC50, cells fed with added oleic acid
# [2] = measured here: cell number channel AC50, cells fed with added oleic acid
smiles,measurement,setting,value
Clc1cccc(Cl)c1CNC1CCCC1,cell number change,,-13.7%
same,AC50,[1],"29.1 µM [falling, single point]"
COc1ccc(N2CCN(C(=O)CSc3nc4c(c(=O)n(C)c(=O)n4C)n3C(C)C)CC2)cc1,cell number change,,39.6%
same,AC50,[2],"0.231 µM [rising, full curve]"
same,AC50,[1],"3.66 µM [rising, full curve]"
O=C(Nc1ccn(Cc2c(F)c(F)cc(F)c2F)n1)c1cccc(Cn2cc([N+](=O)[O-])cn2)c1,AC50,[2],"3.66 µM [rising, single point]"
same,AC50,[1],"6.51 µM [rising, partial curve]"
COC(=O)C1(Cc2cc(-c3ccc(Cl)cc3)no2)CCN(C(=O)OC(C)(C)C)CC1,cell number change,,28.4%
same,AC50,[1],"29.1 µM [rising, single point]"
CC1Cc2ccccc2N1C(=O)CN1CCC(n2nnc3cc(C(F)(F)F)ccc32)CC1 (stereo unspecified),cell number change,,-128%
same,AC50,[2],"25.9 µM [falling, single point]"
O=C(c1ccc([N+](=O)[O-])o1)N(Cc1nnc(-c2ccccc2Cl)o1)C1CC1,cell number change,,-4.03%
same,AC50,[1],"0.00461 µM [rising, full curve, poor fit]"
COc1ccc(-c2cnc(N)n2C)cc1,cell number change,,-16.1%
same,AC50,[1],"0.651 µM [falling, full curve, poor fit]"
Cc1ccc(C(=O)c2cc([N+](=O)[O-])ccc2N2CCOCC2)cc1,cell number change,,10.2%
same,AC50,[2],"6.51 µM [falling, single point]"
O=C(C1CC1)N1N=C(c2ccc(Cl)cc2)CC1(O)C(F)(F)F (stereo unspecified),cell number change,,-56.2%
same,AC50,[2],"14.6 µM [falling, partial curve]"
same,AC50,[1],"16.4 µM [falling, single point]"
COc1ccc(CC2(CO)CCN(S(=O)(=O)c3cccc4cccnc34)CC2)cc1,cell number change,,-7.98%
same,AC50,[1],"2.06 µM [falling, partial curve]"
CCC(OC(=O)c1ccco1)C(=O)NCc1ccc(OC)cc1 (stereo unspecified),cell number change,,1.26%
same,AC50,[1],"6.51 µM [falling, single point]"
O=C(COc1coc(CN2CCN(c3ccccc3)CC2)cc1=O)NC1CCCCC1,AC50,[2],"0.58 µM [rising, single point]"
CN(Cc1ccccc1F)c1ncnc2sccc12,cell number change,,3.63%
same,AC50,[1],"2.06 µM [rising, partial curve, poor fit]"
Cc1ccc(S(=O)(=O)NC(=NC(C)C)c2ccccc2)cc1,cell number change,,-0.477%
same,AC50,[1],"0.092 µM [falling, full curve, poor fit]"
CCOc1ccc(C2(C)NC(=O)N(CCN(C)C)C2=O)cc1 (stereo unspecified),cell number change,,4.01%
same,AC50,[1],"0.13 µM [falling, full curve, poor fit]"
CC(C)CN(CCNC(=O)CN1N=C(c2ccc(Cl)cc2)CCC1=O)CC(C)C,cell number change,,11.3%
same,AC50,[2],"0.58 µM [rising, partial curve, poor fit]"
same,AC50,[1],"13 µM [falling, partial curve]"
CCc1nnc(NS(=O)(=O)c2ccc(NC(=O)COc3ccc(Cl)c(C)c3)cc2)s1,cell number change,,9.47%
same,AC50,[2],"6.51 µM [falling, single point]"
same,AC50,[1],"6.51 µM [falling, partial curve, poor fit]"
Cc1nn(CCOc2cccc(Br)c2)c(C)c1[N+](=O)[O-],cell number change,,6.43%
Cc1ccc(C(=O)NCCNS(=O)(=O)c2ccccc2[N+](=O)[O-])cc1,cell number change,,-3.65%
same,AC50,[1],"0.58 µM [rising, full curve]"
Cc1cccc(OCC(=O)OC(C)CN2CCCCC2)c1 (stereo unspecified),cell number change,,12.3%
same,AC50,[1],"11.6 µM [rising, single point]"
CCCCn1c(SCC(=O)Nc2nnc(C)s2)nc2c1c(=O)n(C)c(=O)n2C,cell number change,,5.91%
same,AC50,[2],"1.84 µM [rising, single point]"
same,AC50,[1],"2.06 µM [rising, full curve]"
Cc1ccc(-c2nc(N)c3c(-c4ccc(C)cc4)nn(C(C)(C)C)c3n2)cc1,AC50,[1],"3.66 µM [falling, partial curve]"
O=C(Cn1nnc(-c2ccccc2NC(=O)c2ccco2)n1)Nc1ccccc1,cell number change,,-30.8%
same,AC50,[2],"32.6 µM [falling, single point]"
same,AC50,[1],"2.91 µM [rising, partial curve]"
COc1ccc(NC(=O)C2C3C=CC4(O3)C2C(=O)N(CCN2CCCCC2C)C4C(=O)NC2CCCCC2)cc1 (stereo unspecified),cell number change,,19%
same,AC50,[2],"0.164 µM [rising, full curve, poor fit]"
CN(Cc1ccccc1)C(=O)CCNS(=O)(=O)c1ccc2c(c1)oc(=O)n2C,AC50,[2],"2.59 µM [rising, single point]"
CC1(C(=O)NC2CCCCCCC2)CCC(=O)N1Cc1cccs1 (stereo unspecified),cell number change,,-1.78%
O=C(NNC(=O)c1ccccc1-c1ccccc1C(=O)O)c1ccccc1,cell number change,,19.6%
same,AC50,[1],"6.51 µM [falling, single point]"
Cn1ccsc1=NC(=O)c1ccc(Cl)c([N+](=O)[O-])c1,cell number change,,23.9%
same,AC50,[1],"0.0517 µM [falling, partial curve, poor fit]"
CN(C)CCOC1c2ccccc2-c2ccccc21,cell number change,,12.6%
same,AC50,[1],"29.1 µM [rising, single point]"
C=CCNCC#CCOc1ccc(OC)cc1,cell number change,,2.8%
same,AC50,[1],"0.326 µM [falling, partial curve, poor fit]"
CCCCCc1nnc(NC(=O)NS(=O)(=O)c2ccc(C)cc2)s1,cell number change,,-10.5%
same,AC50,[1],"0.231 µM [rising, full curve, poor fit]"
O=[N+]([O-])c1ccccc1/C=N\Nc1nccs1,cell number change,,9.07%
CCOc1ccc2c(c1)C(C)=CC(C)(C)N2C(=O)Nc1ccccc1F,cell number change,,0.706%
same,AC50,[1],"29.1 µM [rising, single point]"
CCCCN1CCc2c([nH]c3c(C)cccc23)C1=O,cell number change,,62.5%
same,AC50,[2],"13 µM [rising, partial curve, poor fit]"
Cc1ccnc(NS(=O)(=O)c2ccc(NC(=O)c3oc4ccccc4c3C)cc2)n1,cell number change,,20.5%
same,AC50,[2],"1.03 µM [rising, full curve, poor fit]"
O=S(=O)(c1ccc2oc(=S)[nH]c2c1)N1CCOCC1,cell number change,,-12.4%
same,AC50,[1],"1.3 µM [rising, full curve, poor fit]"
CCCn1c(CCC(=O)Nc2ccccc2Cc2ccccc2)nc2cc(S(=O)(=O)N3CCOCC3)ccc21,cell number change,,124%
same,AC50,[2],"4.61 µM [rising, partial curve]"
same,AC50,[1],"3.26 µM [rising, full curve]"
COc1cccc(CNC(=O)Nc2cccs2)c1,cell number change,,19.6%
same,AC50,[1],"3.26 µM [rising, full curve]"
COC(=O)c1ccccc1NC(=O)/C=C/C(=O)O,cell number change,,3.62%
same,AC50,[1],"1.03 µM [falling, full curve]"
CC(=O)Nc1cccc(NC(=O)COc2nncc3ccccc23)c1,cell number change,,35.5%
same,AC50,[2],"14.6 µM [rising, single point]"
same,AC50,[1],"29.1 µM [rising, single point]"
COc1ccc(S(=O)(=O)NCc2ccc3c(c2)OCO3)cc1C(=O)O,cell number change,,-67.3%
same,AC50,[2],"25.9 µM [falling, partial curve, poor fit]"
CNCCCc1[nH]nc(N)c1C#N,cell number change,,4.03%
O=C1[C@H]2[C@@H](c3ccc(Cl)cc3)N3C(=O)N(c4cccc(Br)c4)C(=O)[C@@]3(Cc3ccc(Cl)cc3)[C@H]2C(=O)N1C1CCCCC1,cell number change,,128%
same,AC50,[2],"20.6 µM [rising, partial curve]"
same,AC50,[1],"1.84 µM [falling, partial curve, poor fit]"
COC(=O)c1cc2ccsc2n1Cc1nc(-c2cccc(Cl)c2)oc1C,cell number change,,-3.28%
same,AC50,[1],"0.731 µM [rising, single point]"
Cc1ccc2nc(SCC(=O)Nc3cccc4ccccc34)nc(=O)n2c1,AC50,[2],"0.92 µM [rising, partial curve]"
CCOC(=O)Cn1cc(/C=N/NC(=O)c2ccc(C#N)cc2F)c2ccccc21,AC50,[1],"5.8 µM [rising, single point]"
C=CCNC(=O)CC(C)C(CCCCC)C(=O)O (stereo unspecified),cell number change,,4.44%
same,AC50,[1],"0.164 µM [falling, full curve, poor fit]"
Cc1ccc(O)c(Sc2cc(C)ccc2O)c1,cell number change,,-90.5%
same,AC50,[2],"16.4 µM [falling, partial curve]"
CCN(Cc1cc(=O)[nH]c2ccccc12)C(=O)c1ccc(C)cc1,cell number change,,2.13%
C=CCOc1cccc(C2/C(=C(\O)c3ccc(F)cc3)C(=O)C(=O)N2CCN(C)C)c1 (stereo unspecified),cell number change,,-17.8%
same,AC50,[2],"1.3 µM [falling, full curve, poor fit]"
same,AC50,[1],"0.731 µM [falling, full curve]"
CCn1nc(C)c(CN2CCN(Cc3ccsc3)C(CCO)C2)c1C (stereo unspecified),cell number change,,11.7%
same,AC50,[1],"0.92 µM [rising, full curve]"
CCN(CC(=O)Nc1ccc(Cl)c(S(=O)(=O)N(C)C)c1)Cc1nc2ccccc2c(=O)[nH]1,cell number change,,31.1%
same,AC50,[2],"8.2 µM [rising, partial curve, poor fit]"
O=C(c1c(Cl)nc2sccn12)N1CCN(c2cccc(Cl)c2)CC1,cell number change,,-29.6%
same,AC50,[1],"0.092 µM [rising, full curve, poor fit]"
O=C(c1ccco1)N1CCN(c2cccc(Cl)c2)CC1,cell number change,,126%
same,AC50,[2],"18.4 µM [rising, partial curve]"
same,AC50,[1],"16.4 µM [rising, partial curve]"
C(=N\Nc1ncnc2nc[nH]c12)/c1cccs1,cell number change,,21.6%
COc1ccc(F)cc1Cn1nc(C(=O)O)c2ccccc2c1=O,cell number change,,11.2%
O=C(Nc1ccc(F)cc1)C(=O)C1C(=O)Nc2ccccc21 (stereo unspecified),cell number change,,-17%
same,AC50,[1],"0.366 µM [falling, partial curve, poor fit]"
COc1cnn(-c2ccc(F)cc2)c(=O)c1Br,cell number change,,-48.3%
same,AC50,[2],"1.03 µM [falling, full curve, poor fit]"
same,AC50,[1],"0.731 µM [falling, full curve]"

# Pulled one by one from above:
smiles,measurement,setting,value
CCCCCc1nnc(NC(=O)NS(=O)(=O)c2ccc(C)cc2)s1,AC50,[1],"0.231 µM [rising, full curve, poor fit]"
Cc1ccc(S(=O)(=O)NC(=NC(C)C)c2ccccc2)cc1,cell number change,,-0.477%
Cc1ccc(C(=O)NCCNS(=O)(=O)c2ccccc2[N+](=O)[O-])cc1,cell number change,,-3.65%
CCCCn1c(SCC(=O)Nc2nnc(C)s2)nc2c1c(=O)n(C)c(=O)n2C,AC50,[2],"1.84 µM [rising, single point]"

# Quoted from above for reference:
smiles,measurement,setting,value
Cn1ccsc1=NC(=O)c1ccc(Cl)c([N+](=O)[O-])c1,cell number change,,23.9%
same,AC50,[1],"0.0517 µM [falling, partial curve, poor fit]"

# From PubChem BioAssay AID2685 (National Center for Advancing Translational Sciences (NCATS), 2010)
